According to article PMC8961594:
No constants are given. Whether binding was seen depends on the method and setting. Binding seen in cells or lysates may run through a third protein. Some binding calls cover weakened binding; strength is not graded here.

By UniProt entry, the sequences of proteins in these tests, tags left out.
UniProt Q96CW1: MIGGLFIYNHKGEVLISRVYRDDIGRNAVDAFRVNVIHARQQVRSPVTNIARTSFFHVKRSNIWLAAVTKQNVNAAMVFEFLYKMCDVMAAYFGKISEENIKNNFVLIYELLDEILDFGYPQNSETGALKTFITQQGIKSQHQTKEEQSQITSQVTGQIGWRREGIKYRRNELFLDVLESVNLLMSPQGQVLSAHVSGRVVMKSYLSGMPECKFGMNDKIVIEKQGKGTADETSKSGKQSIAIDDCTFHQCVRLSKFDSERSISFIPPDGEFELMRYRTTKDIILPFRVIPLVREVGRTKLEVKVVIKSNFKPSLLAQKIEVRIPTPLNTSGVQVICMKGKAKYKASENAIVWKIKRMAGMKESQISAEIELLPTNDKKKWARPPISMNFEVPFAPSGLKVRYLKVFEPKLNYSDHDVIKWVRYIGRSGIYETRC
UniProt P06733: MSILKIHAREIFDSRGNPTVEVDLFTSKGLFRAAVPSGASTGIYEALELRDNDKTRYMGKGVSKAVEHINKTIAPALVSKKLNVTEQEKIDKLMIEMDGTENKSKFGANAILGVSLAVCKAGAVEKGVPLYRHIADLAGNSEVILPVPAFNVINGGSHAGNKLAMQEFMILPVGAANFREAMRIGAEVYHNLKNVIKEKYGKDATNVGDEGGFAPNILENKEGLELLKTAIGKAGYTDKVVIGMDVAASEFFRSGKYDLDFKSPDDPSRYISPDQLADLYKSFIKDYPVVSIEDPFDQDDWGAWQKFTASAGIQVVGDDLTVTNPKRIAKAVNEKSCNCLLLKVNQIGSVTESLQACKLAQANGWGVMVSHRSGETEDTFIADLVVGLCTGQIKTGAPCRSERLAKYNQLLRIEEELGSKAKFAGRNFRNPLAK

Molecular target: T1, Protease-Activated Receptor 1 (PAR1) (human (endogenous in HUVEC)) (UniProt P25116)
T1 sequence: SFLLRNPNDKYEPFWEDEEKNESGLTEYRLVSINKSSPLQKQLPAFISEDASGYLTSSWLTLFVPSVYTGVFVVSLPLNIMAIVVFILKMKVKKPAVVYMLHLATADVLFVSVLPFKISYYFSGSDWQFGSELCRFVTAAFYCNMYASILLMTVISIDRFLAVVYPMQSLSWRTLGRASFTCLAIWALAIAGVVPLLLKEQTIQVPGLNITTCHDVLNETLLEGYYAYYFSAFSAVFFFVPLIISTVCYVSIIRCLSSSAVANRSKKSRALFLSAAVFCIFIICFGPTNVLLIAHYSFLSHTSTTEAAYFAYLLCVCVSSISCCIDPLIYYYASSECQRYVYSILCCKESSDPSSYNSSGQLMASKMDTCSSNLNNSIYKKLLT
Assay: co-IP; HUVEC lysates (untreated or Plg-treated) precleared, incubated with antibody to PAR1 or PAR2 or control IgG 4 h at 4 °C, Protein A/G PLUS beads overnight at 4 °C; immunoblot for AP2µ or ENO-1

In the case of “clathrin adaptor protein AP2µ (from UniProt Q96CW1 1-435)”, the binding is reported as “binds”.
“Enolase-1 (ENO-1) (from UniProt P06733 1-434)” was tested, and the binding was “no binding”.
